# No constants are given. Whether binding was seen depends on the method and setting. Some binding calls cover weakened binding; strength is not graded here.
# Amino acid sequences for entries named in this document (tags omitted). A change or cut given only in a name is not applied to a line headed by its entry.
# UniProt P08670: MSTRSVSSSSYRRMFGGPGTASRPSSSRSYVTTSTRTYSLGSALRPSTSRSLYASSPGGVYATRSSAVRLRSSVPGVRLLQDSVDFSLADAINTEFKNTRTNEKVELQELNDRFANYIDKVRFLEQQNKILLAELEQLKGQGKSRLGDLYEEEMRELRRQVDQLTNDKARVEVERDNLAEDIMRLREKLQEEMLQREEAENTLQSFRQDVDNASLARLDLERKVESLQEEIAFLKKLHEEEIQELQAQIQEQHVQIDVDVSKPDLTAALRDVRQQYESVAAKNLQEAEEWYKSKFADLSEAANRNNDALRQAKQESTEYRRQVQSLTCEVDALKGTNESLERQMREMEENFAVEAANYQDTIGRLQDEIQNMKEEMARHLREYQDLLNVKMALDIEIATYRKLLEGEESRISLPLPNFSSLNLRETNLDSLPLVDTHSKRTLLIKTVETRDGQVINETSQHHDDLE
# Legend:
# [1] = target: His-tagged vimentin (UniProt P08670); experiment: immunofluorescence microscopy of filaments polymerised in vitro; purified His-vimentin polymerised with or without 150 mM NaCl at 30 °C for 30 min, stained with anti-vimentin (V9) and Alexa Fluor 488 secondary antibody, Zeiss ApoTome2; both purified
# [2] = target: His-tagged vimentin (UniProt P08670); experiment: cryo-electron microscopy of filaments polymerised in vitro; soluble purified His-vimentin polymerised at 30 °C for 30 min, adsorbed on holey carbon grid, uranyl acetate, plunge-frozen, JEOL1400 at 120 kV; both purified
# [3] = target: His-tagged vimentin (UniProt P08670); experiment: co-sedimentation; self-assembly into filaments: purified His-vimentin 0.3 mg/mL in dialysis buffer, 150 mM NaCl added, 30 °C for 30 min, centrifuged at 100,000 x g for 20 min; supernatant and pellet on SDS-PAGE, Coomassie blue; both purified
# [4] = target: His-tagged vimentin Y117D mutant (UniProt P08670); experiment: immunofluorescence microscopy of filaments polymerised in vitro; purified His-vimentin polymerised with or without 150 mM NaCl at 30 °C for 30 min, stained with anti-vimentin (V9) and Alexa Fluor 488 secondary antibody, Zeiss ApoTome2; both purified
# [5] = target: His-tagged vimentin Y117F mutant (UniProt P08670); experiment: as above
# [6] = target: His-tagged vimentin Y117F mutant (UniProt P08670); experiment: cryo-electron microscopy of filaments polymerised in vitro; soluble purified His-vimentin polymerised at 30 °C for 30 min, adsorbed on holey carbon grid, uranyl acetate, plunge-frozen, JEOL1400 at 120 kV; both purified
# [7] = target: His-tagged vimentin Y117F mutant (UniProt P08670); experiment: co-sedimentation; self-assembly into filaments: purified His-vimentin 0.3 mg/mL in dialysis buffer, 150 mM NaCl added, 30 °C for 30 min, centrifuged at 100,000 x g for 20 min; supernatant and pellet on SDS-PAGE, Coomassie blue; both purified
substance,measurement,setting,value
His-tagged vimentin (from UniProt P08670 1-466),binding,[1],binds
same,binding,[2],binds
same,binding,[3],binds
His-tagged vimentin Y117D mutant (from UniProt P08670 1-466),binding,[4],binds
His-tagged vimentin Y117F mutant (from UniProt P08670 1-466),binding,[5],binds
same,binding,[6],binds
same,binding,[7],binds
